Test results as given in US20230399388A1.
No constants are given. Whether binding was seen depends on the method and setting. Some binding calls cover weakened binding; strength is not graded here.

Assays:
[1] = target: T1, …-biotin (mouse); experiment: Biacore kinetic studies
T1 sequence (peptide, C-terminal biotin): RRPPGFSPFR

[2] = target: T2, …-biotin; experiment: Biacore kinetic studies
T2 sequence (peptide, C-terminal biotin): KRPPGFSPF

[3] = target: T2, …-biotin; experiment: Biacore, biotin-peptide on SA chip
[4] = target: T3, RPPGFSPF-biotin; experiment: ELISA, biotin-peptide on streptavidin plate
T3 sequence (peptide, C-terminal biotin): RPPGFSPF

[5] = target: T4, biotin-RPPGFSPF; experiment: ELISA, biotin-peptide on streptavidin plate
T4 sequence (peptide, N-terminal biotin): RPPGFSPF

[6] = target: T5, biotin-…; experiment: ELISA, biotin-peptide on streptavidin plate
T5 sequence (peptide, N-terminal biotin): KRPPGFSPF

[7] = target: T2, …-biotin; experiment: ELISA, biotin-peptide on streptavidin plate

Measured: binding

B1: I22 (antibody, V domains shown)
VH: EVQLQQSGAELVRSGASVKLSCTASGFNIKDYYMHWVKQRPEQGLEWIGWVDPENGDSDYAPKFQGKATMTADTSSNTVYLQFSSLTSEDTAVYYCNAFEYDGNYSPLDFWGQGTSVTVSS
VL: DIVMTQSPSSLSVSAGEKVTMSCKSSQSLLNSGNQKNYLAWYQQKPGQPPKLLIYGASTRESGVPDRFTGSGSGTDFTLTISSVQAEDLAVYYCQNDHSYPLTFGAGTKLELK
binds: all assays above
